Laboratory results as given in US20200246488A1.
Results are given in words; binding and its absence hold for the method and conditions named. In cells and extracts the contact can be indirect. Some binding calls cover weakened binding; strength is not graded here. Tags and fused reporters may be left off the sequences shown.

Chains of the proteins cited; added tags and fusions are not shown. Lines headed by an entry give the natural chain unless they say otherwise; changes in a name come on top. A line that says so, or that is headed by a name, gives the form on record, which may keep a tag or linker.
BTRC-Myc (Q9Y297, form named): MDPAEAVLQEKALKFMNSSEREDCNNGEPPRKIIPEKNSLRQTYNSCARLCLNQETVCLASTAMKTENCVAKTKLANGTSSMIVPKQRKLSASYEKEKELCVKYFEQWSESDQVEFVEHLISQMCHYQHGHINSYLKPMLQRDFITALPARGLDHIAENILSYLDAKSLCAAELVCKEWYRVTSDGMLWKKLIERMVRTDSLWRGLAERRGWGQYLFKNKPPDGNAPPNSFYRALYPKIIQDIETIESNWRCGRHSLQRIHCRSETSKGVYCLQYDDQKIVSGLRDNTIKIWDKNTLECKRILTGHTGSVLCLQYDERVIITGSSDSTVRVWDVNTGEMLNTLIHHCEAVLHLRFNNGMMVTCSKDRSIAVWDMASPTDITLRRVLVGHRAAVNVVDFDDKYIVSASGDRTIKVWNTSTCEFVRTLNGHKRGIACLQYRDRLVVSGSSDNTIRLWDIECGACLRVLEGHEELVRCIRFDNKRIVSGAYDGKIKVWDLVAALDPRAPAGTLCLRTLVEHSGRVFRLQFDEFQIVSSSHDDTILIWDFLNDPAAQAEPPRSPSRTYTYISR
UniProt Q9UKB1: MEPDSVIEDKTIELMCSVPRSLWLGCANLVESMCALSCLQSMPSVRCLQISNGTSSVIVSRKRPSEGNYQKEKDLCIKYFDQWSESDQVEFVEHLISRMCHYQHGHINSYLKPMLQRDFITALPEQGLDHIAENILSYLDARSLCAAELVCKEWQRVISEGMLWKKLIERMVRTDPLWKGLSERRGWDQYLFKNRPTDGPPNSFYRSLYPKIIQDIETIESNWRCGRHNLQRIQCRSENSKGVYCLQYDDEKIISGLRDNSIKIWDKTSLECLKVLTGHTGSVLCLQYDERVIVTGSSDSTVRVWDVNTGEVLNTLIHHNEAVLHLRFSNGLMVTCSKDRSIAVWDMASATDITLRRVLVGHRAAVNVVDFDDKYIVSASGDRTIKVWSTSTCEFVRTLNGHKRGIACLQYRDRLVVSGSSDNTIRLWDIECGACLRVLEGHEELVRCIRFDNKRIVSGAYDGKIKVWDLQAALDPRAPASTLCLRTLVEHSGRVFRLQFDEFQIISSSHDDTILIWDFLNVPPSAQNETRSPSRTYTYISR

Columns and labels:
BTRC-Myc = BTRC-Myc (UniProt Q9Y297); assay: co-immunoprecipitation in HEK293T cells, anti-StrepII pull-down, blot for Myc (FIG. 2C)
FBXW11-HA = FBXW11-HA (UniProt Q9UKB1); assay: co-immunoprecipitation in HEK293T cells, anti-StrepII pull-down, blot for HA (FIG. 2D)

- binding (BTRC-Myc): binds
- binding (FBXW11-HA): binds
B1: full-length (FL) FLAG-StrepII-C1orf106 (protein, UniProt Q3KP66-3 1-578, looked up, not shown: small tags and cut ends)
chain: MESKDEVSDTDSGIILQSGPDSPVSPMKELTHAVHKQQRALEARLEACLEELRRLCLREAELTGTLPAEYPLKPGEKAPKVRRRIGAAYKLDDWALHREDPLSSLERQLALQLQITEAARRLCLEENLSRQARRQRKHSMLQEEKKLQELQRCLVERRRNSEPPPAAALPLGRELSASDDSSLSDGLLLEEEESQVPKPPPESPAPPSRPLPPQTLEGLQPTGPEAGSPERAPVQNSPWKETSLDHPYEKPRKSSEPWSESSSPATTPQDGPSASSLWLLEPASYHVVPIRGVPGQWQGRTSAPATPEIQGRRGQSQSLRVDSFRAGPEGRGRSAFPRRRPTHYTVTVPDSCFPATKPPLPHAACHSCSEDSGSDVSSISHPTSPGSSSPDISFLQPLSPPKTHRHRGAWVPAGSRELVAHHPKLLLPPGYFPAGRYVVVAESPLPPGEWELRRAAPGPAYEEEGTPLRYQRLVPSRSRIVRTPSLKDSPAGRGLSKAAVSEELKWWHERARLRSTRPHSLDRQGAFRVRSLPLGREGFGRALGPRAQVPTVCVLRRSPDGAPVQVFVPEKGEIISQV
